Assay results as given in PMC11148166.
No constants are given. Whether binding was seen depends on the method and setting. In cells and extracts the contact can be indirect. A yes stands for co-enrichment or nearness to the bait. Other partners may have been found. Tags and fused reporters may be left off the sequences shown.

T1: STAT1-TurboID-V5 (mouse) (UniProt P42225)
T1 sequence: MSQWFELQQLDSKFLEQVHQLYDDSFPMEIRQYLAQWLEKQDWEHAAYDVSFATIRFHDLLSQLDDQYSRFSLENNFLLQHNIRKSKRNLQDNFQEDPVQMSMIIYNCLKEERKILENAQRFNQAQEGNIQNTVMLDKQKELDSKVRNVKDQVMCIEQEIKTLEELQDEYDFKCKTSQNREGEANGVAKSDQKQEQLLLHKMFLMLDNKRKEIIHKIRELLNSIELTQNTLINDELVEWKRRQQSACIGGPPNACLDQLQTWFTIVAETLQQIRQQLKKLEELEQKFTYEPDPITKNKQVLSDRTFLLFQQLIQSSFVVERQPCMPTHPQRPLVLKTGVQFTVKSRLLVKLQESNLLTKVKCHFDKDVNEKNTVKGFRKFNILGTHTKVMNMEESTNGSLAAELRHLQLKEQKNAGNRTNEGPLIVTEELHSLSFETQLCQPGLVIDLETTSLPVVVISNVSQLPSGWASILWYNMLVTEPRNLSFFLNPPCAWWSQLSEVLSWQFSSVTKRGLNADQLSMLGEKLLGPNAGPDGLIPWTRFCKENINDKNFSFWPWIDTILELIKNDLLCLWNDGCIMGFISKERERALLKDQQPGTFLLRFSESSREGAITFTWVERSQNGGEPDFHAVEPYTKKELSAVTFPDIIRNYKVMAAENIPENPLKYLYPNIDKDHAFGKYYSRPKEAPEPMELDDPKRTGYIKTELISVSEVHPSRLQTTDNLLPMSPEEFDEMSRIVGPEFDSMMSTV

T2: STAT1-TurboID-V5 (mouse), P42225
T2 chain: T1 sequence

B1: YEATS2 (protein, UniProt Q3TUF7 1-1407)
chain: MSGIKRTIKETDPDYEDVSVALPNKRHKAIESSARDAAVQKIETIIKEQFALEMKNKEHEIDVIDQRLIEARRMMDKLRACIVANYYASAGLLKVSEGLKTFDPMAFNHPAIKKFLESPSRSSSPTNQRSETPSANHSESDSLSQHNDFLSDKDNNSNVDVEERPPSTGEQRPSRKAGRDTSSISGSHKRELRNADLTGDETSRLFVKKTIVVGNVSKYIPPDKREENDQSTHKWMVYVRGSRREPSINHFVKKVWFFLHPSYKPNDLVEVREPPFHLTRRGWGEFPVRVQVHFKDSQNKRIDIIHNLKLDRTYTGLQTLGAETVVDVELHRHSLGEDSVYPQSSESDVCDAPPPTLTLPAAVKASAVAQSPEPAAAAPVGEGFPETTEAERHSTFYSLPSSLERTPTKVTTAQKVTFSSHGNSAFQPIASSCKIVPQSQVPNPESPGKSFQPITMSCKIVSGSPISTPSPSPLPRTPTSTPVHLKQGTASSGVSNPHVIVDKPGQVIGASTPSTGSPTSKLPVASQASQGTGSPIPKIHGSSFLTSTVKQEESLFASMPPLCPIGSHPKVQSPKAVTGGLGAFTKVIIKQEPGEAPHVSTTGAASQSAFPQYVTVKGGHMIAVSPQKQVISAGEGTTQSPKIAPSKVVGVPVGSALPSTVKQAVAISSGQILVAKASSSVTKAVGPKQVVTQGVAKAIVSGGGGTIVAQPVQTLTKTQVTAAGPQKSGSQGSVMATLQLPATNLANLANLPPGTKLYLTTNSKNPSGKGKLLLIPQGAILRATNNANLQSGSAAAGGSGSSGAGGGSGGGGGSGAGGTPSTSGPGGGPQHLTYTSYILKQTPQGTFLVGQPSPQTPGKQLTTASVVQGTLGVSSSSAQGQQTLKVISGQKTTLFTQAATAGQASLLKLPDNTLKSVPAAPQLAKPGTTMLRVAGGVITAAPSPAVAFSANGAVHQSEGSTPVSSSVGSIIKTPGQPQVCVSQATMATCKGPAAVAGTAASLVSAPSSISGKATVSGLLKVHSAQSSPQQAVLTIPSQLKPLSINTSGGVQTVLMPVNKVVQSFSTSKLPTTVLPISVPNQAAPSSAPVAIAKVKTEPETPGPNCISQENQVAVKTEESSELSNYVIKVDHLETIQQLLTAVVKKIPLITAKGDDASCFSAKSLEQYYGWNIGKRRAAEWQRAMTVRKVLQEILEKNPRFHHLTPLKTKHIAHWCRCHGYTPPDPESLRHDGDSIEDVLTQIDSEPECLSSFSTADDLCRKLEDLQQFQKREPENEEEVDILSLSEPLKTNIKKEQEEKQEEMRFYLPPTPGSGFVGDITQKIGITLQPVALHRNMYASVVEDMILKATEQLVSDILRQALAVGYQTASPNRIPKEITVSNIHQAICNIPFLDFLTNKHMGRLNEDQ
B2: TRIM14 (protein, UniProt Q8BVW3 1-440)
chain: MASETTEARAPFQPDGAYGWRCPEHSERPAELFCRRCGRCVCALCPVLGAHRGHPVGLAEEEAVRVQKLIQDCLECLATKKRQHADNIAHLEDAGERLKVYADSSKAWLTQKFTELRLLLDEEEVLAKKFIDKSTQLTLQVYREQAETCGKQIEVMDDFSTRVWGIGQEPNPVQLLQAYIATKTEMGQQMSPSELSHPVPLSFEPVKNFFKEFVEAIGNTLQTPMDTRLKENINCQLSNSSSTKPGALLKTSPSPERALFLKYARTPTLDPDTMHARLRLSPDGLTVRCSLLGRLGPRPAPRFDALRQVLGRDGFAAGRHYWEVDVQEAGVGWWVGAAYPSLRRRGASAAARLGCNRESWCVKRYDLEYWAFHDGQRSRLRPRRDPHRLGVFLDYEAGILAFYDVAGGMSHLHTFHAAFQEPLYPALRLWEGPISIPRLP
B3: Edc3 (protein, UniProt Q8K2D3 1-508)
chain: MAMDWLGSIVSINCGDSLGVYQGRVSAVDQVSQTISLTRPFHNGVKCLVPEVTFRAGDITELKILEIPGPGDNQQVGDLHQTELGPSGVGYQMSISQNGTGKVVKKPASSSSAPQSIPKRTDVKSQDVAISPQQQQCSKSYVDRHMESLSQSKSFRRRHNSWSSSSRHPNQATPKKSGLKNGQMKNKDDECFGDDIEELPDTDFDFEGNLALFDKAAVFEEIDTYERRSGSRSRGVPNERPARYRHDENILESEPIVYRRITVPHSVSKEFCTDSGLVVPSVSYELHKKLLSVAEKHGLTLERRLEMTGVCASQMALTLLGGPNRLNPKNVHQRPTVALLCGPHVKGAQGISCGRHLANHDVQVILFLPNFVKMLESITNELSLFSKTQGQQVSSLRDLPASPVDLVINCLDCPENAFLRDQPWYKAAVAWANQNRAPVLSIDPPVHEVEQGIDAKWSLALGLPLPLGEHAGRVYLCDIGIPQQVFQEVGINYHSPFGCKFVIPLHSA
B4: IFI203 (protein, UniProt O35368 1-408)
chain: MAEYKNIVLLKGLENMEDYQFRTVKSLLRKELKLTKKMQEDYDRIQLADWMEDKFPKDAGLDKLIKVCEHIKDLKDLAKKLKTEKAKVQEKKKGKCKTAGKKKGQDELSSSESLFINKESYKSVPSSKKKRKQITKTEGGKKKKLTQEQAQLPETSGTNIKKEEDCLQNPHKSPPTPSSSSSNKAPRRGTVPKEPSREEGHHQGPKQVMVLKVTEPFTYDFEETKRMFHATVATETEFFRVKVFDTALMSKFIPGKIIAISHYIGCNGFLEIYRASCVSDVNINPTMIISNTLSESAIATPKISYLLSQAKGTFVNGEFVVFKKSERHECICYGIGDDTGKMAVVVYGRLTNVRCEPGSKLRLVCFELTSTKDVCLLRSVRHSYMQVINEGKPLNPDSVRRNSLEPYF
B5: Parp9 (protein, UniProt Q8CAS9 1-866)
chain: MAYYMDTWAAAPAERPGMIASLSLSFKKAFAELFPQRRRGHSEGDYPPLRGSANNSLEEHYRWQIPIKHNVFEILKSNESQLCEVLQNKFGCISTLSCPTLAGSSSPAQRVFRRTLIPGIELSVWKDDLTRHVVDAVVNAANENLLHGSGLAGSLVKTGGFEIQEESKRIIANVGKISVGGIAITGAGRLPCHLIIHAVGPRWTVTNSQTAIELLKFAIRNILDYVTKYDLRIKTVAIPALSSGIFQFPLDLCTSIILETIRLYFQDKQMFGNLREIHLVSNEDPTVASFKSASESILGRDLSSWGGPETDPASTMTLRIGRGLTLQIVQGCIEMQTTDVIVNSGYMQDFKSGRVAQSILRQAGVEMEKELDKVNLSTDYQEVWVTKGFKLSCQYVFHVAWHSQINKYQILKDAMKSCLEKCLKPDINSISFPALGTGLMDLKKSTAAQIMFEEVFAFAKEHKEKTLTVKIVIFPVDVETYKIFYAEMTKRSNELNLSGNSGALALQWSSGEQRRGGLEAGSPAINLMGVKVGEMCEAQEWIERLLVSLDHHIIENNHILYLGKKEHDVLSELQTSTRVSISETVSPRTATLEIKGPQADLIDAVMRIECMLCDVQEEVAGKREKNLWSLSGQGTNQQEKLDKMEESYTFQRYPASLTQELQDRKKQFEKCGLWVVQVEQIDNKVLLAAFQEKKKMMEERTPKGSGSQRLFQQVPHQFCNTVCRVGFHRMYSTSYNPVYGAGIYFTKSLKNLADKVKKTSSTDKLIYVFEAEVLTGSFCQGNSSNIIPPPLSPGALDVNDSVVDNVSSPETIVVFNGMQAMPLYLWTCTQDRTFSQHPMWSQGYSSGPGMVSSLQSWEWVLNGSSV
B6: c/EBPδ (protein, UniProt Q00322 1-268)
chain: MSAALFSLDSPVRGTPWPTEPAAFYEPGRVDKPGRGPEPGDLGELGSTTPAMYDDESAIDFSAYIDSMAAVPTLELCHDELFADLFNSNHKAAGAGGLELLQGGPTRPPGVGSVARGPLKREPDWGDGDAPGSLLPAQVAVCAQTVVSLAAAAQPTPPTSPEPPRGSPGPSLAPGTVREKGAGKRGPDRGSPEYRQRRERNNIAVRKSRDKAKRRNQEMQQKLVELSAENEKLHQRVEQLTRDLAGLRQFFKKLPSPPFLPPTGADCR
B7: Parp12 (protein, UniProt Q8BZ20 1-711)
chain: MAQAAVAVAEVTQLLCAAGGALELAELRRRLRTSLGTDALERLLRDCGRFVVASRAVVAVGAGREAAAAASERLVLAVSSLRLCRAHQGPKPGCTGLCAQLHLCKFLIYGNCKFLKTGKNCRNGHNLKTDHNLSVLRTHGVDHLTYTELCQLLLQNDPSLLPDICLHYNKGDGPFGSCSFQKQCIKLHICQYFLQGECKFGTSCKRSHEFTNSESLEQLERLGLSSDLVSRLLSTYRNAYDIKNKGSALSKVSPSPAGPQGSSERKDSSGPVSPGTPSQEESEQICLYHIRKSCSFQEKCHRVHFHLPYRWQFLDGGKWKDLDNMELIEEAYSNPSKDRIVYTESAAGFHFDNLDFNSMKFGNTLARRLSTASSVTKPPHFILTTDWIWYWMDEFGSWQEYGRQGSGHPVTTISSSDVERAYLAFCAPGADAQAATLKFQAGKHNYELHFKAFLQKNLVYGTIRKVCRRPKYVSPQDVQMKQSCNTKLHGPKSIPDYWDPAALPDLGFKKITLSSSSEEYQKVWNIFNRTLPFYFVQKIERIQNMGLWEVYQWQKCQMQKQNGGKEVDERQLFHGTSANFVDAICQQNFDWRVCGLHGTSYGKGSYFARDAAYSHHYSKSDTHSHMMFLARVLVGDFVRGSTSFVRPPAKEGQSNAFYDSCVNSMSDPTIFVVFEKHQVYPEYLIQYSTSSKPPASPSIFVALGNLFTSRQ
B8: IRF9, Q61179 1-399 (protein)
chain: MASGKVRCTRKLRSWIVEQVESGHFPGVCWDDAAKTMFRIPWKHAGKQDFREDQDAAIFKAWALFKEKHKDGDIGHPAVWKTRLRCALNKSSEFEEVPERGRMDVAEPYKVYRILPAGTLPNQPRNQKSPCKRSISCVSPEREENMENGRTNGVVNHSDSGSNIGGGGNGSNRSDSNSNCNSELEEGAGTTEATIREDPVFLEHQLPLNSDYSLLLTFIYGGRVVGKTQVHSLDCRLVAERSDSESSMEQVEFPKPDPLEPTQHLLNQLDRGVLVASNSRGLFVQRLCPIPISWNAPEAPPGPGPHLLPSNKCVELFKTTYFCRDLAQYFQGQGPPPKFQATLHFWEESPGSSHSQENLITVQMEQAFARHLLEKIPEEEKAALFLLQHTEQSPSALGH

Biological target: T1, STAT1-TurboID-V5 (mouse)
Test: proximity labelling; TurboID; STAT1-TurboID-V5 (STAT1-BirA*) in Stat1-/- RAW 264.7 cells, Dox 24 h, untreated or IFNβ or IFNγ 3 h, 500 µM biotin 10 min; nuclear extracts, streptavidin beads, mass spectrometry; log2FC >= 1 above BirA*-NLS control, Padj <0.05
Details: not given

binding, binds:
B1, B2, B3, B4, B5, B6, B7

Biological target: T2, STAT1-TurboID-V5 (mouse), P42225
Test: as above
Details: remark: other sources report otherwise

binding, binds:
B8
